Measurements: patent US10435371B2, “Multifunctional aminoquinoline therapeutic agent” (LOHOCLA RESEARCH CORPORATION, priority 2014, dated 2019)
Where “and” joins values, the source holds several entries; their conditions need not be identical. Equal entries are not always repeated. Where two headings read alike, the source gives them in different places. At least one structure is not confirmed: it was looked up by name or label, or the drawing left a doubt. Some results were stated once for a whole list of compounds, not compound by compound.

Sequences of proteins named here, by UniProt entry; tags and fusion partners are left off. Residues count along the entry.
UniProt P12389, 28-511: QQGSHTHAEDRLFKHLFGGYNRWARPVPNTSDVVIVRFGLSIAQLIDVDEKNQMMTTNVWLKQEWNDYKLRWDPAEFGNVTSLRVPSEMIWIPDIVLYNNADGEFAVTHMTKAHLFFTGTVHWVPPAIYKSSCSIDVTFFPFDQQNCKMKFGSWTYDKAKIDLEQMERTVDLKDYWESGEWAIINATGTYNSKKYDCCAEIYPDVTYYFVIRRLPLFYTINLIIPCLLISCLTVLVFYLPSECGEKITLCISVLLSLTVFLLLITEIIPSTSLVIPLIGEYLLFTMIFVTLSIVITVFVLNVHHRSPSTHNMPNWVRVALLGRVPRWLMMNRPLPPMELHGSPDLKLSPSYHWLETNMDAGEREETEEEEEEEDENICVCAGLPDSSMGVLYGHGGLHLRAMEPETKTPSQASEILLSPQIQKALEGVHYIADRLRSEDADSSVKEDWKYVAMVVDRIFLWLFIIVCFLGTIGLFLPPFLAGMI
UniProt P04757, 26-499: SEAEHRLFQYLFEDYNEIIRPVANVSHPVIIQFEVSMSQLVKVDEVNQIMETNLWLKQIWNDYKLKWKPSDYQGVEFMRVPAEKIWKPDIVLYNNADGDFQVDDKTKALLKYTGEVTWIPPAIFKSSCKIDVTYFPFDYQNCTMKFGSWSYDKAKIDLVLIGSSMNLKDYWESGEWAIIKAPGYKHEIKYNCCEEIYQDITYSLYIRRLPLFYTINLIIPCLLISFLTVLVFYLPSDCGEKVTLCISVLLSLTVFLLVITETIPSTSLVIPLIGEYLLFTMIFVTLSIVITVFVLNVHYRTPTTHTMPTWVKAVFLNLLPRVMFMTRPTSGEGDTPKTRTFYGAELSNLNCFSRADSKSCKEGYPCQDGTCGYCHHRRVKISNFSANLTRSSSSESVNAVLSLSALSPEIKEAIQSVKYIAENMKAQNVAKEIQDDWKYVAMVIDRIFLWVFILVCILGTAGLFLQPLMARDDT
UniProt Q13936, whole entry: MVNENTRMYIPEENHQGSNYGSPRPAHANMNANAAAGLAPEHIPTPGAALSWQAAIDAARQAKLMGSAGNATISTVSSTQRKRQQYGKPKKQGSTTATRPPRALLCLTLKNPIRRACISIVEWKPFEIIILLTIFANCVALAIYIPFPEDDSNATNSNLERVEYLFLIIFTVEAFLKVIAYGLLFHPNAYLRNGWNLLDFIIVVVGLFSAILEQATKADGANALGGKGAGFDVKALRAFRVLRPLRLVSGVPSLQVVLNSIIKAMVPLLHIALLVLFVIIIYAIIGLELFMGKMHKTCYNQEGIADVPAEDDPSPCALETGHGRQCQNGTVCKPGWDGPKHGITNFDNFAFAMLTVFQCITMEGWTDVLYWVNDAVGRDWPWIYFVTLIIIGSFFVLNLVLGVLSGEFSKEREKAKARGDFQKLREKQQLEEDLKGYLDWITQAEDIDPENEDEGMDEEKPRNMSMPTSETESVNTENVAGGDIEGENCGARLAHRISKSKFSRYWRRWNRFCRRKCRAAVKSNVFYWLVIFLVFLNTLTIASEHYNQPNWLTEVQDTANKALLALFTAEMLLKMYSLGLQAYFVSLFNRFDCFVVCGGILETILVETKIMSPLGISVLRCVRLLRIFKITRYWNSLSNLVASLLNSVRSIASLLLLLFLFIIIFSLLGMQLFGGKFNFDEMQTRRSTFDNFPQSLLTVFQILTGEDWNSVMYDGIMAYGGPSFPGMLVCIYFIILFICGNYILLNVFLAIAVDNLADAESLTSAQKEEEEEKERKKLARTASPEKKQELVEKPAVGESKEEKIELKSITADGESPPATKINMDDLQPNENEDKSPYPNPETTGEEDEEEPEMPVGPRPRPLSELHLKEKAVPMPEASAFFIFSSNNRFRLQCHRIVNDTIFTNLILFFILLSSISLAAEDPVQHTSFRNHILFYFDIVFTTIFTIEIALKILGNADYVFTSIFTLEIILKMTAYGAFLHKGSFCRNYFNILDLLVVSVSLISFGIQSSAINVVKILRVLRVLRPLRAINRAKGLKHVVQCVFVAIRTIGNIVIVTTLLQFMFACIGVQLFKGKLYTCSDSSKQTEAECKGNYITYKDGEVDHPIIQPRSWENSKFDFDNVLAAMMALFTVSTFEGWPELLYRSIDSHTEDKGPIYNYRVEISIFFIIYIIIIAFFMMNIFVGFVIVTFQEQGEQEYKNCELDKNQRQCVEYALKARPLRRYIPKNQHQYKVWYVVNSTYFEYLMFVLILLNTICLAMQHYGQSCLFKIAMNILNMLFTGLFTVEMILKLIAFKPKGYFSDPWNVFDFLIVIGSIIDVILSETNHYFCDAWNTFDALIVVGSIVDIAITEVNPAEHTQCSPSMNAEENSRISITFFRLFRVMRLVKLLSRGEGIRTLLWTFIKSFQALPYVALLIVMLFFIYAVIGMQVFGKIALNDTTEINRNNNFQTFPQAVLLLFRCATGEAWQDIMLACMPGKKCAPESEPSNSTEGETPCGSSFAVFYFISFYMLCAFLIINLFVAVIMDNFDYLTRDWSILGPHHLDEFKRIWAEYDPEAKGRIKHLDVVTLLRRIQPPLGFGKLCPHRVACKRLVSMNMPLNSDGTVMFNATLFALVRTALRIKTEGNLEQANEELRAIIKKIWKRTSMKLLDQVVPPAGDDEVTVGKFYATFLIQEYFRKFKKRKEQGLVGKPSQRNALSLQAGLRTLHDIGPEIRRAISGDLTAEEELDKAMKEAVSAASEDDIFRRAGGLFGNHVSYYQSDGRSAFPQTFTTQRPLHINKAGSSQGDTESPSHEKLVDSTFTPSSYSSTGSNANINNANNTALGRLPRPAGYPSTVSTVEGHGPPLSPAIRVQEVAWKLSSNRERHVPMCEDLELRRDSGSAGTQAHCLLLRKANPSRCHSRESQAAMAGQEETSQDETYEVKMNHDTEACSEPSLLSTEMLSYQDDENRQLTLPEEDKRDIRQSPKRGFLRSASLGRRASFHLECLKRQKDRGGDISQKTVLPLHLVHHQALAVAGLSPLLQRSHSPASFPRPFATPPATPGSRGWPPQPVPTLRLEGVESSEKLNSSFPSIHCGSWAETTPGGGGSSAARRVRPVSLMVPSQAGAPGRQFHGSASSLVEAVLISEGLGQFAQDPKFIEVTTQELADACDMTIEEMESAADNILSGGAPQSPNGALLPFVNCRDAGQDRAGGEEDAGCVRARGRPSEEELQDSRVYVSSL
UniProt P08908, whole entry: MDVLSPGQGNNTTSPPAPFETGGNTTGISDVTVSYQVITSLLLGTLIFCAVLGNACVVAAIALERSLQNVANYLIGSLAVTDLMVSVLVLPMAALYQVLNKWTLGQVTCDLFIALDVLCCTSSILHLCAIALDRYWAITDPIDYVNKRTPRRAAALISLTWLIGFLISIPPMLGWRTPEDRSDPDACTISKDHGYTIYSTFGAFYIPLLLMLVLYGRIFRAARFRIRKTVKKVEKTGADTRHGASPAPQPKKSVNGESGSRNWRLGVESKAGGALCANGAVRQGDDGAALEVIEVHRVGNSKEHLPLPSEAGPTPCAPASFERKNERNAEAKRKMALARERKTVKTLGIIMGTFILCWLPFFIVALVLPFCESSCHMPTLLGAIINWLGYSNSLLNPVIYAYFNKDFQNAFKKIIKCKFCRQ
UniProt P41595, whole entry: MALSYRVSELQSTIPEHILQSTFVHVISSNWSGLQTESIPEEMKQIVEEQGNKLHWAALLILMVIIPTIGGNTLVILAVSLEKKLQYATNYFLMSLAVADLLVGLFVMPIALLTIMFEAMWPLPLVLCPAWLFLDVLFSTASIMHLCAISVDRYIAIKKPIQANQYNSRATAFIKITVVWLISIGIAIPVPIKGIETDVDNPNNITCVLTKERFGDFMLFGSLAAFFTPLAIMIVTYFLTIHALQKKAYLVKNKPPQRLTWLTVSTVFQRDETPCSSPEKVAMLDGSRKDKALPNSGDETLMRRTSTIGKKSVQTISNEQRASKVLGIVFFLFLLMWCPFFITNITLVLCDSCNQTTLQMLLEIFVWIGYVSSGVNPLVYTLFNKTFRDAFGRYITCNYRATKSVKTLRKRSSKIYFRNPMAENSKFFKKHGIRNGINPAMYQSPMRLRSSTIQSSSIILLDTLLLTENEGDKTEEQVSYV
UniProt P07550, whole entry: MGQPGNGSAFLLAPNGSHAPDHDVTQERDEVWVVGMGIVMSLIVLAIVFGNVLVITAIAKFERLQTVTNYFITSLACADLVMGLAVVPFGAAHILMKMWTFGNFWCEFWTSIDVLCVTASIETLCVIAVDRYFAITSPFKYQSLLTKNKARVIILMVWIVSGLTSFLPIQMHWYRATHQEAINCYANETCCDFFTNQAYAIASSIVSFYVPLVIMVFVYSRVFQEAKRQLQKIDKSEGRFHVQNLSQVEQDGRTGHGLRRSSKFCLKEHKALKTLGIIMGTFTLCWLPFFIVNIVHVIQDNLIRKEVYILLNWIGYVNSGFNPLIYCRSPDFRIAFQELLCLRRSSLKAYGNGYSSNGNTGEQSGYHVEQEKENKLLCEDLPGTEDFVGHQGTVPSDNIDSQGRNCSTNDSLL
UniProt P21728, whole entry: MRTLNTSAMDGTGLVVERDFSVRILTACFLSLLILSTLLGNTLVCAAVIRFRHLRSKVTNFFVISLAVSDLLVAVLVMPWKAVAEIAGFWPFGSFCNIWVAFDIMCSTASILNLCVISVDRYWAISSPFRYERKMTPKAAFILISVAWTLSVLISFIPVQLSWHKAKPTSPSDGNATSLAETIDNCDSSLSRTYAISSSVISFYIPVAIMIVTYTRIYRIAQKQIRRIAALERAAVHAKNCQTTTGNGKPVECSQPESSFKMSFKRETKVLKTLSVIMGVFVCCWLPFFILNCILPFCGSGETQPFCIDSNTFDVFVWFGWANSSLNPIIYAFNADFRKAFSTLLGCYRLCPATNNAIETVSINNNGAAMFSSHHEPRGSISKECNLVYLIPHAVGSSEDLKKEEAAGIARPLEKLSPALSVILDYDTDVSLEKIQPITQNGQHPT
UniProt P08172, whole entry: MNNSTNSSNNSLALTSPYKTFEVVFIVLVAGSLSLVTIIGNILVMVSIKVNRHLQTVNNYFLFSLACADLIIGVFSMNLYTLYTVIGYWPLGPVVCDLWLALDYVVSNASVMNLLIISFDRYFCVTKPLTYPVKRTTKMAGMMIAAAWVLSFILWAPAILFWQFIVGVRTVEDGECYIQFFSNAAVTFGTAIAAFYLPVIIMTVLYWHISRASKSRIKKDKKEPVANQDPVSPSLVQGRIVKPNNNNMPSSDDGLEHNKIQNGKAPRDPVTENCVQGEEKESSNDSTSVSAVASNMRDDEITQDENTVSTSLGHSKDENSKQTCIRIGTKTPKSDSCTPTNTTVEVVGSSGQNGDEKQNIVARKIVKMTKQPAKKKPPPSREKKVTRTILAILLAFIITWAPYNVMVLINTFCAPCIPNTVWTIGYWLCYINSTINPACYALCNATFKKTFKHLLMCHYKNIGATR
UniProt P41594, 21-1212: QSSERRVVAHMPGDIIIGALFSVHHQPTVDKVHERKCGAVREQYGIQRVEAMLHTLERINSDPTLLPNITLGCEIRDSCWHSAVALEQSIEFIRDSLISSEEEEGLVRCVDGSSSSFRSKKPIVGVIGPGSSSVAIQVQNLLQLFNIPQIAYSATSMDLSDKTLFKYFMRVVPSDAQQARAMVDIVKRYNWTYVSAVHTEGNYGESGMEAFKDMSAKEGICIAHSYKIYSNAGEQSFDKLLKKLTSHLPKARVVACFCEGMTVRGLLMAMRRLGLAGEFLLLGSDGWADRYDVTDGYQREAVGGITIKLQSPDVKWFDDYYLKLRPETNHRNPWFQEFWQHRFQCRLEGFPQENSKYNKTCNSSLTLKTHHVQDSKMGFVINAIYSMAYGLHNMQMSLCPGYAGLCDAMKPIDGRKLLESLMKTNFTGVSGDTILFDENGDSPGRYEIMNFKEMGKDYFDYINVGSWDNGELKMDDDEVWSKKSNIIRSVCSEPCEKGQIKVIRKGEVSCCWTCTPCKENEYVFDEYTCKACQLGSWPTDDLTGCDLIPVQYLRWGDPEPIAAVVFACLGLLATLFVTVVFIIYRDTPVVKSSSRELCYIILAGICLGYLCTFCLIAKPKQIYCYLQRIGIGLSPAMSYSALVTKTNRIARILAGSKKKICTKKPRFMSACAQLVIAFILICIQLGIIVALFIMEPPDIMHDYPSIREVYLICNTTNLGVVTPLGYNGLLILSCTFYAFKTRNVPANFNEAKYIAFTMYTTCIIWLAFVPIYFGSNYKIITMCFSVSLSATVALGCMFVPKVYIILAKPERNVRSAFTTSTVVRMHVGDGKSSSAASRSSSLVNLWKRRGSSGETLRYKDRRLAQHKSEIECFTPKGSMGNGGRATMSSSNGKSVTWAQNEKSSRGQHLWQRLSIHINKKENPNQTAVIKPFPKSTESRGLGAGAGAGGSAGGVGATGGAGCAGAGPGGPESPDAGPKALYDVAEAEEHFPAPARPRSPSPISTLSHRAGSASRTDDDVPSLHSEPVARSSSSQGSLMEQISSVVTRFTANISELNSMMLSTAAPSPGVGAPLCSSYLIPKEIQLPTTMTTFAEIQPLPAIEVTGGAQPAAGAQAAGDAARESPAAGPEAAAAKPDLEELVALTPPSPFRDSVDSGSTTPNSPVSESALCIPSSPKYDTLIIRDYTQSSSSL

Legend:
[1] = target: α2β4 (Adrenergic Rs (alpha adrenergic)) (Rattus norvegicus, UniProt P12389+P12392); experiment: PDSP radioligand binding; settings: read-out: Ki, α2β4 (lack of affinity); Table 3, the 6th table r13c0
[2] = target: α3β2 (Adrenergic Rs (alpha adrenergic)) (Rattus norvegicus, UniProt P04757+P12390); experiment: PDSP radioligand binding; settings: read-out: Ki, α3β2 (lack of affinity); Table 3, the 6th table r14c0
[3] = target: α3β4 (Adrenergic Rs (alpha adrenergic)) (Rattus norvegicus, UniProt P04757+P12392); experiment: PDSP radioligand binding; settings: read-out: Ki, α3β4 (lack of affinity); Table 3, the 6th table r15c0
[4] = target: CaV1.2 (Voltage sensitive Ca** channel (L-type)) (Homo sapiens, UniProt Q13936); experiment: PDSP radioligand binding; settings: Table 3, the 6th table r22c0; read-out: Ki, CaV1.2 (lack of affinity)
[5] = target: EP2 (Prostaglandin Rs) (Homo sapiens, UniProt P43116); experiment: PDSP radioligand binding; settings: Table 3, the 6th table r12c1; read-out: Ki, EP2 (lack of affinity)
[6] = target: NMDA channel binding site (Ionotropic glutamate Rs); experiment: PDSP radioligand binding; settings: Table 3, the 6th table r19c1; read-out: Ki, NMDA channel binding site (lack of affinity)
[7] = target: Kainate (Ionotropic glutamate Rs); experiment: PDSP radioligand binding; settings: Table 3, the 6th table r20c1; read-out: Ki, Kainate (lack of affinity)
[8] = test system: rats treated with Complete Freund's Adjuvant; experiment: Combination with morphine, CFA-induced thermal hyperalgesia (radiant heat paw withdrawal test); type: in vivo, rat; settings: thermal hyperalgesia after CFA; FIG. 15 Panels B and C
[9] = target: 5-HT1A (Serotonin Rs) (Homo sapiens, UniProt P08908); experiment: PDSP radioligand binding; settings: read-out: Ki, 5-HT1A (lack of affinity); Table 3, the 6th table r6c0
[10] = target: 5-HT1B (Serotonin Rs) (Homo sapiens, UniProt P28222); experiment: PDSP radioligand binding; settings: read-out: Ki, 5-HT1B (lack of affinity); Table 3, the 6th table r7c0
[11] = target: 5-HT2A (Serotonin Rs) (UniProt P28223); experiment: PDSP radioligand binding; settings: read-out: Ki, 5-HT2A (lack of affinity); Table 3, the 6th table r8c0
[12] = target: 5-HT2B (Serotonin Rs) (Homo sapiens, UniProt P41595); experiment: PDSP radioligand binding; settings: read-out: Ki, 5-HT2B (lack of affinity); Table 3, the 6th table r9c0
[13] = target: 5-HT3 (Serotonin Rs) (Homo sapiens, UniProt P46098); experiment: PDSP radioligand binding; settings: read-out: Ki, 5-HT3 (lack of affinity); Table 3, the 6th table r10c0
[14] = target: α4β2 (Adrenergic Rs (alpha adrenergic)) (Rattus norvegicus, UniProt P09483+P12390); experiment: PDSP radioligand binding; settings: read-out: Ki, α4β2 (lack of affinity)
[15] = target: β1 (Adrenergic Rs (beta adrenergic)) (Homo sapiens, UniProt P08588); experiment: PDSP radioligand binding; settings: read-out: Ki, β1 adrenergic (lack of affinity); Table 3, the 6th table r19c0
[16] = target: β2 (Adrenergic Rs (beta adrenergic)) (Homo sapiens, UniProt P07550); experiment: PDSP radioligand binding; settings: read-out: Ki, β2 adrenergic (lack of affinity); Table 3, the 6th table r20c0
[17] = target: D1 (Dopamine Rs) (Homo sapiens, UniProt P21728); experiment: PDSP radioligand binding; settings: read-out: Ki, D1 (lack of affinity); Table 3, the 6th table r6c1
[18] = target: D2 (Dopamine Rs) (Homo sapiens, UniProt P14416); experiment: PDSP radioligand binding; settings: read-out: Ki, D2 (lack of affinity); Table 3, the 6th table r7c1
[19] = target: M1 (Muscarinic Cholinergic Rs) (Homo sapiens, UniProt P11229); experiment: PDSP radioligand binding; settings: read-out: Ki, M1 (lack of affinity); Table 3, the 6th table r14c1
[20] = target: M2 (Muscarinic Cholinergic Rs) (Homo sapiens, UniProt P08172); experiment: PDSP radioligand binding; settings: read-out: Ki, M2 (lack of affinity); Table 3, the 6th table r15c1
[21] = target: mGluR5 (Metabotropic Glutamate Rs) (Homo sapiens, UniProt P41594); experiment: PDSP radioligand binding; settings: read-out: Ki, mGluR5 (lack of affinity); Table 3, the 6th table r17c1
[22] = target: Serotonin Transporter (Homo sapiens, UniProt P31645); experiment: PDSP radioligand binding; settings: read-out: Ki, Serotonin Transporter (lack of affinity); Table 3, the 6th table r21c1
[23] = target: V1A (Vasopressin) (Homo sapiens, UniProt P37288); experiment: PDSP radioligand binding; settings: read-out: Ki, V1A (lack of affinity); Table 3, the 6th table r23c1
[24] = target: MOR (μ opiate receptor) (Homo sapiens, UniProt P35372); experiment: PDSP radioligand binding, [^3H]DAMGO; settings: read-out: Ki, μ opiate receptor (lack of affinity); Table 3, the 6th table r9c1
[25] = target: KOR (κ opiate receptor) (UniProt P41145); experiment: PDSP radioligand binding, [^3H]U69593; settings: read-out: Ki, κ opiate receptor (lack of affinity); Table 3, the 6th table r10c1

## CCCCN(CCCC)C(=O)Nc1cc(C(=O)O)nc2cc(Cl)cc(Cl)c12 [BCUKA, 5,7-dichloro-4-(3,3-dibutylureido)quinoline-2-carboxylic acid]
[1]
  Ki: > 10 µM
[2]
  Ki: > 10 µM
[3]
  Ki: > 10 µM

## CCOC(=O)c1cc(NC(=O)N(c2ccccc2)c2ccccc2)c2c(Cl)cc(Cl)cc2n1 [DCUK-OEt]
[4]
  Ki: > 10 µM
[5]
  Ki: > 10 µM
[6]
  Ki: > 10 µM
[7]
  Ki: > 10 µM
[8]
  DCUK-OEt/morphine dose ratio at which the ED50 of morphine was significantly reduced: > 30:1 and 18:1
[9]
  Ki: > 10 µM
[10]
  Ki: > 10 µM
[11]
  Ki: > 10 µM
[12]
  Ki: > 10 µM
[13]
  Ki: > 10 µM
[1]
  Ki: > 10 µM
[2]
  Ki: > 10 µM
[3]
  Ki: > 10 µM
[14]; Table 3, the 6th table r16c0 (first α4β2 line)
  Ki: > 10 µM
[14]; Table 3, the 6th table r17c0 (second α4β2 line)
  Ki: > 10 µM
[15]
  Ki: > 10 µM
[16]
  Ki: > 10 µM
[17]
  Ki: > 10 µM
[18]
  Ki: > 10 µM
[19]
  Ki: > 10 µM
[20]
  Ki: > 10 µM
[21]
  Ki: > 10 µM
[22]
  Ki: > 10 µM
[23]
  Ki: > 10 µM
[24]
  Ki: > 10 µM
[25]
  Ki: > 10 µM

## O=C(O)c1cc(NC(=O)N(c2ccccc2)c2ccccc2)c2c(Cl)cc(Cl)cc2n1 [DCUKA, 5,7-dichloro-4-(3,3-diphenylureido)quinoline-2-carboxylic acid]
[1]
  Ki: > 10 µM
[2]
  Ki: > 10 µM
[3]
  Ki: > 10 µM
